# Earlier results, collected in patent US20240400536A1, “IDEBENONE DERIVATIVES AND THEIR USE IN TREATING PLANTS” (MITORX THERAPEUTICS LIMITED, priority 2021, published 2024).
# At least one compound was matched to its structure with a doubt left.
# Conditions: cited from earlier work
smiles,measurement,value
O=C(CCCCCCCCC[P+](c1ccccc1)(c1ccccc1)c1ccccc1)Oc1ccc(-c2cc(=S)ss2)cc1.[Br-] [AP39],hygroscopicity,high
